Changes are numbered by the printed parent chain. A weaker result is weaker than the reference pair of the same experiment. Tags and fusion partners may be left off the protein sequences shown.
Experiments:
Assay in all cases: EMSA
[1] = target: T1, OsEME1 E490A (Oryza sativa L. japonica cv. KY131) (UniProt Q0J9J6); conditions: shift dramatically reduced, cleavage reduced; EMSA/cleavage: 25 mM Tris-HCl pH 7.5, 1 mM MgCl2, 1 mM DTT, 5 mM ATP, 2.5 uM Cy5 substrate, 20 uM protein, 30 C; recombinant protein; residues 1-650; protein details: MBP cleaved by TEVp
T1 sequence (looked up): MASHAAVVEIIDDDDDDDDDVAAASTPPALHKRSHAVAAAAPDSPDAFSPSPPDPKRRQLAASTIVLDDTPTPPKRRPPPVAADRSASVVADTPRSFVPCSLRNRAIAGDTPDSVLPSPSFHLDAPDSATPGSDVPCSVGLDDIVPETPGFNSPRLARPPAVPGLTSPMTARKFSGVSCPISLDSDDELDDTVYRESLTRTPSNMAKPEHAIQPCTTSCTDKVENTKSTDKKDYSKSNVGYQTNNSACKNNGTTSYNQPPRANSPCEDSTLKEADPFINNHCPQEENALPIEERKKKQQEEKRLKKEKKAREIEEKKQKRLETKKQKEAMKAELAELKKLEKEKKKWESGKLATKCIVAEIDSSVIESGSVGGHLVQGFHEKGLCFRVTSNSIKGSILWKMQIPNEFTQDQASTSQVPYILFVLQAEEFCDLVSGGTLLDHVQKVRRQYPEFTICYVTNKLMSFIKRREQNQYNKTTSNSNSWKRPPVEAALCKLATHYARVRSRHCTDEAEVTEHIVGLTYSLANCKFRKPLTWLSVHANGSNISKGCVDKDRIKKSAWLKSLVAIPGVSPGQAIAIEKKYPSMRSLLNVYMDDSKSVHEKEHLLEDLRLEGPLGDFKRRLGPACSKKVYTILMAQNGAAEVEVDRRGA

[2] = target: T2, OsEME1 K494E (Oryza sativa L. japonica cv. KY131) (UniProt Q0J9J6); conditions: shift dramatically reduced, cleavage reduced; EMSA/cleavage: 25 mM Tris-HCl pH 7.5, 1 mM MgCl2, 1 mM DTT, 5 mM ATP, 2.5 uM Cy5 substrate, 20 uM protein, 30 C; recombinant protein; residues 1-650; protein details: MBP cleaved by TEVp
T2 sequence (looked up): T1 sequence (looked up) with A490E, K494E

[3] = target: T3, OsEME1 L439V (Oryza sativa L. japonica cv. KY131) (UniProt Q0J9J6); conditions: shift dramatically reduced, cleavage reduced; EMSA/cleavage: 25 mM Tris-HCl pH 7.5, 1 mM MgCl2, 1 mM DTT, 5 mM ATP, 2.5 uM Cy5 substrate, 20 uM protein, 30 C; recombinant protein; residues 1-650; protein details: MBP cleaved by TEVp
T3 sequence (looked up): T1 sequence (looked up) with L439V, A490E

[4] = target: T4, OsEME1 P487A (Oryza sativa L. japonica cv. KY131) (UniProt Q0J9J6); conditions: shift decreased, cleavage increased; EMSA/cleavage: 25 mM Tris-HCl pH 7.5, 1 mM MgCl2, 1 mM DTT, 5 mM ATP, 2.5 uM Cy5 substrate, 20 uM protein, 30 C; recombinant protein; residues 1-650; protein details: MBP cleaved by TEVp
T4 sequence (looked up): T1 sequence (looked up) with P487A, A490E

Measured: binding result

GACGCTGCCGAATTCTGGCTTGCTAGGACATCTTTGCCCACGTTGACCCG / GCGATAGTCTCTAGACAGCATGTCCTAGCAAGCCAGAATTCGGCAGCGTC [Y12]
binds more weakly: all assays above

Reference: PMC12205872, “ESSENTIAL MEIOTIC ENDONUCLEASE 1 is required for chloroplast development and DNA repair in rice”
